Measurements reported in article PMC10053710, “Influence of Lipidation Pattern of the KR12 Fragment of Peptide LL-37 on Its Antibacterial and Hemolytic Activities” (International Journal of Molecular Sciences, 2023).

Experiments:
[1] = system: Klebsiella aerogenes ATCC 13048; assay type: cell-based; conditions: calculated from MHC5 (hRBCs) and MIC
Procedure: (§1) Tests of the antibacterial activity were carried out as we just described. Briefly, for assays, the following strains of ESKAPE bacteria were chosen: Acinetobacter baumannii ATCC BAA-1605, Enterococcus faecium ATCC 700221, Klebsiella aerogenes ATCC 13048 (formerly Enterobacter aerogenes), Klebsiella pneumoniae ATCC 700603, and Pseudomonas aeruginosa ATCC 9027. Moreover, the reference strains of Staphylococcus aureus were used: S. aureus ATCC 25923, S. aureus ATCC 6538, S. aureus ATCC 33591 (MRSA), S. aureus ATCC 9144, and S. aureus ATCC 12598. Before experiments, all the strains were stored at −80 °C in Roti®-Store cryo vials (Carl Roth GmbH, Karlsruhe, Germany). To evaluate the activity of the compounds, bacteria were transferred into fresh Mueller–Hinton medium (Becton Dickinson, Warszawa, Poland) and incubated for 24 h at 37 °C. In the next step, bacterial inoculums were seeded on Mueller–Hinton agar plates (BioMaxima SA, Lublin, Poland) and incubated again for 24 h. The MIC values were determined using the broth microdilution method according to the Clinical and Laboratory Standards Institute Protocol. The initial inoculums of bacteria (0.5 × 10^5 colony forming units (CFU)/mL) prepared in Mueller–Hinton broth were exposed to the ranging concentrations of peptides (1–512 µg/mL). The experiments were conducted on 96-well microtiter plates, with a final volume of 100 µL. The inoculum densities were checked spectrophotometrically (Multiskan™ GO Microplate Spectrophotometer, Thermo Scientific, Waltham, MA, USA) at 600 nm. The results were read after incubation for 18 h at 37 °C. The MIC values were the lowest concentration at which a visible growth of microorganisms was inhibited. All experiments were conducted in triplicate. Moreover, positive (growth) and negative (sterility) controls were included.

[2] = system: Enterococcus faecium ATCC 700221; assay type: cell-based; conditions: calculated from MHC5 (hRBCs) and MIC
Procedure: as §1

[3] = system: Klebsiella pneumoniae ATCC 700603; assay type: cell-based; conditions: calculated from MHC5 (hRBCs) and MIC
Procedure: as §1

[4] = system: Pseudomonas aeruginosa ATCC 9027; assay type: cell-based; conditions: calculated from MHC5 (hRBCs) and MIC
Procedure: as §1

[5] = calculated from MHC5 (hRBCs) and MIC

Structure (SMILES) | Selectivity index K. aerogenes [1] | Selectivity index E. faecium [2] | Selectivity index K. pneumoniae [3] | Selectivity index P. aeruginosa [4] | Selectivity index A. baumannii [5]
CCCCCCCC(=O)N[C@@H](CCCCN)C(=O)N[C@@H](CCCNC(=N)N)C(=O)N[C@H](C(=O)N[C@H](C(=O)N[C@@H](CCC(N)=O)C(=O)N[C@@H](CCCNC(=N)N)C(=O)N[C@H](C(=O)N[C@@H](CCCCN)C(=O)N[C@@H](CC(=O)O)C(=O)N[C@@H](Cc1ccccc1)C(=O)N[C@@H](CC(C)C)C(=O)N[C@@H](CCCNC(=N)N)C(N)=O)[C@@H](C)CC)C(C)C)[C@@H](C)CC [II, C8^α-KR12-NH2] (Octanoyl-KRIVQRIKDFLR-NH2) | 16 | 16 | 8 | 4 | –
CCCCCCCC(=O)NCCCC[C@H](N)C(=O)N[C@@H](CCCNC(=N)N)C(=O)N[C@H](C(=O)N[C@H](C(=O)N[C@@H](CCC(N)=O)C(=O)N[C@@H](CCCNC(=N)N)C(=O)N[C@H](C(=O)N[C@@H](CCCCN)C(=O)N[C@@H](CC(=O)O)C(=O)N[C@@H](Cc1ccccc1)C(=O)N[C@@H](CC(C)C)C(=O)N[C@@H](CCCNC(=N)N)C(N)=O)[C@@H](C)CC)C(C)C)[C@@H](C)CC [III, C8^ε-KR12-NH2] (H-K(Octanoyl)RIVQRIKDFLR-NH2) | 8 | 128 | 16 | 8 | –
CCCCCCCC(=O)N[C@@H](CCCCN)C(=O)N[C@@H](CCCCN)C(=O)N[C@@H](CCCNC(=N)N)C(=O)N[C@H](C(=O)N[C@H](C(=O)N[C@@H](CCC(N)=O)C(=O)N[C@@H](CCCNC(=N)N)C(=O)N[C@H](C(=O)N[C@@H](CCCCN)C(=O)N[C@@H](CC(=O)O)C(=O)N[C@@H](Cc1ccccc1)C(=O)N[C@@H](CC(C)C)C(=O)N[C@@H](CCCNC(=N)N)C(N)=O)[C@@H](C)CC)C(C)C)[C@@H](C)CC [IV, C8^α-Lys-KR12-NH2] (Octanoyl-KKRIVQRIKDFLR-NH2) | 8 | 64 | 16 | 8 | –
CCCCCCCC(=O)NCCCC[C@H](N)C(=O)N[C@@H](CCCCN)C(=O)N[C@@H](CCCNC(=N)N)C(=O)N[C@H](C(=O)N[C@H](C(=O)N[C@@H](CCC(N)=O)C(=O)N[C@@H](CCCNC(=N)N)C(=O)N[C@H](C(=O)N[C@@H](CCCCN)C(=O)N[C@@H](CC(=O)O)C(=O)N[C@@H](Cc1ccccc1)C(=O)N[C@@H](CC(C)C)C(=O)N[C@@H](CCCNC(=N)N)C(N)=O)[C@@H](C)CC)C(C)C)[C@@H](C)CC [V, C8^ε-Lys-KR12-NH2] (H-K(Octanoyl)KRIVQRIKDFLR-NH2) | 4 | 64 | 16 | 16 | –
CCCCCCCC(=O)NCCCC[C@H](NC(=O)[C@H](CCCNC(=N)N)NC(=O)[C@H](CC(C)C)NC(=O)[C@H](Cc1ccccc1)NC(=O)[C@H](CC(=O)O)NC(=O)[C@H](CCCCN)NC(=O)[C@@H](NC(=O)[C@H](CCCNC(=N)N)NC(=O)[C@H](CCC(N)=O)NC(=O)[C@@H](NC(=O)[C@@H](NC(=O)[C@H](CCCNC(=N)N)NC(=O)[C@@H](N)CCCCN)[C@@H](C)CC)C(C)C)[C@@H](C)CC)C(N)=O [VI, KR12-Lys^ε(C8)-NH2] (H-KRIVQRIKDFLRK(Octanoyl)-NH2) | 8 | 128 | 16 | 16 | –
CCCCCCCC(=O)NCCCC[C@H](NC(=O)[C@@H](NC(=O)[C@H](CCCNC(=N)N)NC(=O)[C@H](CCC(N)=O)NC(=O)[C@@H](NC(=O)[C@@H](NC(=O)[C@H](CCCNC(=N)N)NC(=O)[C@@H](N)CCCCN)[C@@H](C)CC)C(C)C)[C@@H](C)CC)C(=O)N[C@@H](CC(=O)O)C(=O)N[C@@H](Cc1ccccc1)C(=O)N[C@@H](CC(C)C)C(=O)N[C@@H](CCCNC(=N)N)C(N)=O [VIII, [Lys^ε(C8)]^8KR12-NH2] (H-KRIVQRIK(Octanoyl)DFLR-NH2) | 2 | 8 | 2 | 1 | –
CCCCCCCC(=O)N[C@@H](CCCNC(=N)N)C(=O)N[C@@H](CC(C)C)C(=O)N[C@@H](Cc1ccccc1)C(=O)N[C@@H](CC(=O)O)C(=O)N[C@@H](CCCCN)C(=O)N[C@H](C(=O)N[C@@H](CCCNC(=N)N)C(=O)N[C@@H](CCC(N)=O)C(=O)N[C@H](C(=O)N[C@H](C(=O)N[C@@H](CCCNC(=N)N)C(=O)N[C@@H](CCCCN)C(N)=O)[C@@H](C)CC)C(C)C)[C@@H](C)CC [XII, C8^α-retro-KR12-NH2] (Octanoyl-RLFDKIRQVIRK-NH2) | 2 | 64 | 4 | 8 | –
CCCCCCC(CCCC)C(=O)N[C@@H](CCCCN)C(=O)N[C@@H](CCCNC(=N)N)C(=O)N[C@H](C(=O)N[C@H](C(=O)N[C@@H](CCC(N)=O)C(=O)N[C@@H](CCCNC(=N)N)C(=O)N[C@H](C(=O)N[C@@H](CCCCN)C(=O)N[C@@H](CC(=O)O)C(=O)N[C@@H](Cc1ccccc1)C(=O)N[C@@H](CC(C)C)C(=O)N[C@@H](CCCNC(=N)N)C(N)=O)[C@@H](C)CC)C(C)C)[C@@H](C)CC (stereo partly shown) [XIII, 2-Buthyloctanoic acid-KR12-NH2] (X1-KRIVQRIKDFLR-NH2) | 2 | 8 | 2 | 0.5 | –
CCCCC(CC)C(=O)N[C@@H](CCCCN)C(=O)N[C@@H](CCCNC(=N)N)C(=O)N[C@H](C(=O)N[C@H](C(=O)N[C@@H](CCC(N)=O)C(=O)N[C@@H](CCCNC(=N)N)C(=O)N[C@H](C(=O)N[C@@H](CCCCN)C(=O)N[C@@H](CC(=O)O)C(=O)N[C@@H](Cc1ccccc1)C(=O)N[C@@H](CC(C)C)C(=O)N[C@@H](CCCNC(=N)N)C(N)=O)[C@@H](C)CC)C(C)C)[C@@H](C)CC (stereo partly shown) [XIV, 2-Ethylhexanoic acid-KR12-NH2] (X3-KRIVQRIKDFLR-NH2) | 16 | 64 | 16 | 2 | –
CC[C@H](C)[C@H](NC(=O)[C@H](CCCNC(=N)N)NC(=O)[C@H](CCC(N)=O)NC(=O)[C@@H](NC(=O)[C@@H](NC(=O)[C@H](CCCNC(=N)N)NC(=O)[C@H](CCCCN)NC(=O)/C=C/c1ccccc1)[C@@H](C)CC)C(C)C)C(=O)N[C@@H](CCCCN)C(=O)N[C@@H](CC(=O)O)C(=O)N[C@@H](Cc1ccccc1)C(=O)N[C@@H](CC(C)C)C(=O)N[C@@H](CCCNC(=N)N)C(N)=O [XIX, trans-cinnamic acid-KR12-NH2] (X4-KRIVQRIKDFLR-NH2) | 8 | 32 | 8 | 4 | –
CC[C@H](C)[C@H](NC(=O)[C@H](CCCNC(=N)N)NC(=O)[C@H](CCC(N)=O)NC(=O)[C@@H](NC(=O)[C@@H](NC(=O)[C@H](CCCNC(=N)N)NC(=O)[C@H](CCCCN)NC(=O)CCc1ccccc1)[C@@H](C)CC)C(C)C)C(=O)N[C@@H](CCCCN)C(=O)N[C@@H](CC(=O)O)C(=O)N[C@@H](Cc1ccccc1)C(=O)N[C@@H](CC(C)C)C(=O)N[C@@H](CCCNC(=N)N)C(N)=O [XVII, 3-Phenylpropionic acid-KR12-NH2] (Hydrocinnamoyl-KRIVQRIKDFLR-NH2) | 4 | 64 | 8 | 4 | –
CC[C@H](C)[C@H](NC(=O)[C@H](CCCNC(=N)N)NC(=O)[C@H](CCC(N)=O)NC(=O)[C@@H](NC(=O)[C@@H](NC(=O)[C@H](CCCNC(=N)N)NC(=O)[C@H](CCCCN)NC(=O)CCCc1ccccc1)[C@@H](C)CC)C(C)C)C(=O)N[C@@H](CCCCN)C(=O)N[C@@H](CC(=O)O)C(=O)N[C@@H](Cc1ccccc1)C(=O)N[C@@H](CC(C)C)C(=O)N[C@@H](CCCNC(=N)N)C(N)=O [XVIII, 4-Phenylbutanoic acid-KR12-NH2] ({Butanoyl(4-Ph)}-KRIVQRIKDFLR-NH2) | 4 | 16 | 8 | 2 | 32

For some of these results: The source's definition of the ratio is not given here. Where a SMILES comes first, the peptide text is derived from it. The star is where a group is joined. Butanoyl(4-Ph) = O=C(CCCc1ccccc1)*; Hydrocinnamoyl = O=C(CCc1ccccc1)*; Octanoyl = CCCCCCCC(=O)*; X1 = CCCCCCC(CCCC)C(=O)*; X4 = O=C(/C=C/c1ccccc1)*; X3 = CCCCC(CC)C(=O)*
